Patent publication US12558430B2 (Eli Lilly and Company, priority 2020, dated 2026)
Non-standard residues stand in square brackets, D forms with d. Aib = CC(C)(N)C(=O)O

Experiment: general procedure: Fmoc solid-phase peptide synthesis; Polystyrene Rink Amide AM LL resin (Novabiochem, 0.33 meq/g, 100-200 mesh); diisopropylcarbodiimide and Oxyma; PyAOP/DIEA for fatty acid-linker
Details: whole synthesis, analytical RP-HPLC, scale of the general procedure 0.13 mmol, TFA salt

Ac-ASHLSTAVLGKLS[Aib]ELHKLEDYPRTDVGAESP-NH2
final HPLC purity: >99.0%
